Assay results taken from paper PMC4976202.
These are yes or no findings as the source states them, for the method shown. Binding seen in cells or lysates may run through a third protein.

The chains behind the UniProt entries cited, without tags or fusion partners.
UniProt P14618: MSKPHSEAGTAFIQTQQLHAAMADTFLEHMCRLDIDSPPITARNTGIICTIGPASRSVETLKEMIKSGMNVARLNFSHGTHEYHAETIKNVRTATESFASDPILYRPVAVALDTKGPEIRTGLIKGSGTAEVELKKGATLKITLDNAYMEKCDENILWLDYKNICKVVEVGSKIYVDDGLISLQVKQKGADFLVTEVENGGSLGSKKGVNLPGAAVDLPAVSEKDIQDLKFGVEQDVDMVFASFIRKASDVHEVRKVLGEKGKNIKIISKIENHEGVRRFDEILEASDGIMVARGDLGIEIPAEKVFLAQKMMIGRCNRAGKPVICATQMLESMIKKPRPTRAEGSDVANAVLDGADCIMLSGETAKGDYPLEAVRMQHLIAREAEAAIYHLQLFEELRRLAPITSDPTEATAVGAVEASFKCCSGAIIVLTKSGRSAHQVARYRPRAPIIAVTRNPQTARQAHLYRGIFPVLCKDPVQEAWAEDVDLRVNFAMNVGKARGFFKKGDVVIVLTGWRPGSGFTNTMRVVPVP
UniProt P62136: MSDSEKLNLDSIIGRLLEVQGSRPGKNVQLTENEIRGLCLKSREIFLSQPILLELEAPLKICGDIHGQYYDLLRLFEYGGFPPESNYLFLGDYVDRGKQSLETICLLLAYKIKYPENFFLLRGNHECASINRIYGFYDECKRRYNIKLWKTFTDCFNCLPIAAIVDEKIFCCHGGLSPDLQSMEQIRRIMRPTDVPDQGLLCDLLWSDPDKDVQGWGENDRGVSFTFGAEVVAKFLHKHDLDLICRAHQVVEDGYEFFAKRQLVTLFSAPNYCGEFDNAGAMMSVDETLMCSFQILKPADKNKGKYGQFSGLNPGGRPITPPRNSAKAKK

B1: Cdc25B (enzyme, UniProt P30305 1-580)
chain: MEVPQPEPAPGSALSPAGVCGGAQRPGHLPGLLLGSHGLLGSPVRAAASSPVTTLTQTMHDLAGLGSETPKSQVGTLLFRSRSRLTHLSLSRRASESSLSSESSESSDAGLCMDSPSPMDPHMAEQTFEQAIQAASRIIRNEQFAIRRFQSMPVRLLGHSPVLRNITNSQAPDGRRKSEAGSGAASSSGEDKENDGFVFKMPWKPTHPSSTHALAEWASRREAFAQRPSSAPDLMCLSPDRKMEVEELSPLALGRFSLTPAEGDTEEDDGFVDILESDLKDDDAVPPGMESLISAPLVKTLEKEEEKDLVMYSKCQRLFRSPSMPCSVIRPILKRLERPQDRDTPVQNKRRRSVTPPEEQQEAEEPKARVLRSKSLCHDEIENLLDSDHRELIGDYSKAFLLQTVDGKHQDLKYISPETMVALLTGKFSNIVDKFVIVDCRYPYEYEGGHIKTAVNLPLERDAESFLLKSPIAPCSLDKRVILIFHCEFSSERGPRMCRFIRERDRAVNDYPSLYYPEMYILKGGYKEFFPQHPNFCEPQDYRPMNHEAFKDELKTFRLKTRSWAGERSRRELCSRLQDQ
B2: Cdc25C (enzyme, UniProt P30307 1-473)
chain: MSTELFSSTREEGSSGSGPSFRSNQRKMLNLLLERDTSFTVCPDVPRTPVGKFLGDSANLSILSGGTPKRCLDLSNLSSGEITATQLTTSADLDETGHLDSSGLQEVHLAGMNHDQHLMKCSPAQLLCSTPNGLDRGHRKRDAMCSSSANKENDNGNLVDSEMKYLGSPITTVPKLDKNPNLGEDQAEEISDELMEFSLKDQEAKVSRSGLYRSPSMPENLNRPRLKQVEKFKDNTIPDKVKKKYFSGQGKLRKGLCLKKTVSLCDITITQMLEEDSNQGHLIGDFSKVCALPTVSGKHQDLKYVNPETVAALLSGKFQGLIEKFYVIDCRYPYEYLGGHIQGALNLYSQEELFNFFLKKPIVPLDTQKRIIIVFHCEFSSERGPRMCRCLREEDRSLNQYPALYYPELYILKGGYRDFFPEYMELCEPQSYCPMHHQDHKTELLRCRSQSKVQEGERQLREQIALLVKDMSP

Biological target: S-FLAG-streptavidin-binding peptide (SFB)-tagged PKM2 (human) (UniProt P14618)
Test: pull-down; SFB-PKM2 pulled down with streptavidin-agarose beads from nuclear lysates/fraction of U87/EGFR cells treated with or without EGF (100 ng/ml) for 4 h; immunoblotting

“PP1 (from UniProt P62136 1-330) (enzyme)” was tested. Which binding did it give?
Its binding is “no binding”.

B1 was tested. Which binding did it give?
The binding was “no binding”.

With B2 as the molecule, how does the binding read?
Its binding is “no binding”.
